Results are given in words; binding and its absence hold for the method and conditions named. Binding seen in cells or lysates may run through a third protein. A result given as binding can be weak or reduced; the word gives no strength. For some assays here: Sequences can lack the tags named with a protein.
Columns and labels:
[1] = target: T1, Linker3 of mNLRP1b (HEK293T construct) (mouse) (UniProt Q2LKW6); assay: co-IP; HEK293T co-transfected, lysed 48 h later in 50 mM Tris-HCl pH 7.4, 150 mM NaCl, 1% NP-40, 1 mM EDTA, 10% glycerol; IP with anti-Flag M2 agarose 4 h at 4 °C; immunoblot; the NT-CT pairs also in DPP8/9 double-knockout HEK293T (binding unaffected)
T1 sequence: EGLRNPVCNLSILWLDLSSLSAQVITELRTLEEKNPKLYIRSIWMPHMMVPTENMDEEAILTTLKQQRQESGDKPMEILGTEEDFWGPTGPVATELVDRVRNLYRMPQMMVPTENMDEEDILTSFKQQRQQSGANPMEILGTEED

[2] = target: T2, cleavage-resistant mNLRP1b S984A, N-terminal Flag tag (mouse) (UniProt Q2LKW6); assay: as above
T2 sequence: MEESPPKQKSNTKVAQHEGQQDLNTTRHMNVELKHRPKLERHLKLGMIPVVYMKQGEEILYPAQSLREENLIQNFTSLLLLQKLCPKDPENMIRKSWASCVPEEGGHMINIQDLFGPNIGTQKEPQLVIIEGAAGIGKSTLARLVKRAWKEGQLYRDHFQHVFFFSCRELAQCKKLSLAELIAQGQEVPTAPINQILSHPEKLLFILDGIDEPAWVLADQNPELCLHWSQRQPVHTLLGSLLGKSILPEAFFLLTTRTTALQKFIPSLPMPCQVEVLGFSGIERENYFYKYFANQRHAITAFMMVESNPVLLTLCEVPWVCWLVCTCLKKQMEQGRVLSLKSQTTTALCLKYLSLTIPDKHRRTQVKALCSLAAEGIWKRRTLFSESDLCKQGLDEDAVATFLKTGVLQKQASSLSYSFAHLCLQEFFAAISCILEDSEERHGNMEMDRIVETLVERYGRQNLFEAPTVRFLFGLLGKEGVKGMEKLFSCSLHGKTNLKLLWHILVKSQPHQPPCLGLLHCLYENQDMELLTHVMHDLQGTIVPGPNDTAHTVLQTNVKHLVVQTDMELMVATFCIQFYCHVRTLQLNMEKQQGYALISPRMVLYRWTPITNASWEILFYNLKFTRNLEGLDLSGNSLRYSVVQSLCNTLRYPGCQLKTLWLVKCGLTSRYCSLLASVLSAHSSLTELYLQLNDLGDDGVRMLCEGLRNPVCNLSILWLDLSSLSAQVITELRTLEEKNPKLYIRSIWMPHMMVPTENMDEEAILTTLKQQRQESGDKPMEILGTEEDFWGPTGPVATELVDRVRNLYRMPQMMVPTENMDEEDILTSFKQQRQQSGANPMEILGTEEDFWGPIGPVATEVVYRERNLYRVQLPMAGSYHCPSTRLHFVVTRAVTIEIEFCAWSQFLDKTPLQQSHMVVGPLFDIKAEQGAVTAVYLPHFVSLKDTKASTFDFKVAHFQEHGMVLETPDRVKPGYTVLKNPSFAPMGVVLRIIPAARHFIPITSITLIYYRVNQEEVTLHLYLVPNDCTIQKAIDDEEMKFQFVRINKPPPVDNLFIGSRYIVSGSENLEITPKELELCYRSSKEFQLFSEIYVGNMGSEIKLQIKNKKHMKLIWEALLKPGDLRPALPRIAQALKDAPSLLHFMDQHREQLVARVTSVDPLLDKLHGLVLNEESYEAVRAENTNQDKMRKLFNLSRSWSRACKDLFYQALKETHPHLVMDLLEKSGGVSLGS

- binding [1]: binds
- binding [2]: binds
Substance: mNLRP1b^CT, C-terminal HA tag (mouse) (domain or fragment)

— publication PMC11760013
